In patent publication US4568490A (Zaidan Hojin Biseibutsu Kagaku Kenkyu Kai, priority 1981, dated 1986):

Assay: general procedure: peptide synthesis; sodium cyanoborohydride (reductive alkylation); HOBT for amidation of bleomycini
Settings: late stage modification step
[1] = trihydrochloride or tetrahydrochloride (copper-free)

| Substance | step yield (trihydrochloride) [% yield] | step yield [1] [% yield] | step yield (tetrahydrochloride) [% yield] |
| --- | --- | --- | --- |
| 3-{N-methyl-N-[3'-(cyclooctylmethylamino)propyl]amino}propylaminobleomycin | 58 |  |  |
| 3-{N-methyl-N-[3'-(bis(m,p-dibenzyloxybenzyl)amino)propyl]amino}propylaminobleomycin | 57 |  |  |
| 3-[N,N-diethyl-N-(3'-dibenzylamino)propyl]aminopropylaminobleomycin | 92 | 75 |  |
| 3-[4-(3-dibenzylaminopropyl)piperazin-1-yl]propylaminobleomycin |  |  | 65 |
| 3-{N,N-dimethyl-N-[3'-(N,N-dimethyl-N-(3'-dibenzylaminopropyl)amino)propyl]amino}propylaminobleomycin |  |  | 55 |
| 3-{N-methyl-N-[3'-(cycloundecanylmethylamino)propyl]amino}propylaminobleomycin | 90 | 79 |  |
